The values below come from the supplement of paper PMC8616043.

Structures can show the parent of a compound that is named as a salt. The list shows a part of the results. Single values are uncertain here, since repeats match poorly.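 PR50, a 50-repeat proline–arginine dipeptide protein from C9ORF72 (ALS/FTD), was expressed by transfection in U-2 OS human cells stably carrying a GFP sensor with import and classical export signals. Per-well nuclear-minus-cytoplasm GFP, normalized between in-plate DMSO (low) and PR-only (high), was scored versus other test wells; compounds well below zero were hits reversing PR.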

This assay concerns U-2 OS NCT-C biosensor cells expressing PR50. The assay can be described thus: Z-score of normalised NCT-C biosensor translocation index in PR50-expressing cells; higher = more nuclear biosensor (more disrupted nuclear export). Particulars: 3 µM; 24 h.
As for `C[C@H]1[C@H](C)CC[C@]2(C(=O)O)CC[C@]3(C)C(=CC[C@@H]4[C@@]5(C)CC[C@H](O)C(C)(C)[C@@H]5CC[C@]43C)[C@H]12` [Ursolic acid], the Z-score was inactive: -0.537. On to `O=C(c1ccc(F)cc1)C1CCN(CCn2c(=O)[nH]c3ccccc3c2=O)CC1` [Ketanserin tartrate], for which the Z-score was inactive: -0.703. For the compound `COc1cccc2c(NCc3ccccc3)nc(-n3c(N)nc4ccccc43)nc12`, the Z-score was inactive: -0.437. Next, `CC=CC(=O)N(CC)c1ccccc1C` [Crotamiton]: inactive: 0.163; `NCCCCCC(=O)O` [Aminocaproic Acid]: inactive: 0.11. For the compound `CN(C)C(=N)NC(=N)N` [Metformin·HCl], the Z-score was inactive: -1.66. Next, `Nc1nc2c(ncn2COC(CO)CO)c(=O)[nH]1` [Ganciclovir]: inactive: -0.119. Next, `CO[C@H]1/C=C/O[C@@]2(C)Oc3c(C)c(O)c4c(O)c(c5c(nc6cc(C)ccn65)c4c3C2=O)NC(=O)/C(C)=C\C=C\[C@H](C)[C@H](O)[C@@H](C)[C@@H](O)[C@@H](C)[C@H](OC(C)=O)[C@@H]1C` [Rifaximin]: inactive: -0.391; `CN1CCN(C2Cc3ccccc3Sc3ccc(Cl)cc32)CC1` (racemic) [(±)-Octoclothepin maleate]: inactive: 0.258. Next, `Clc1cccc(Cl)c1NC1=NCCN1` [Clonidine hydrochloride]: inactive: -0.724; `Clc1cccc(Cl)c1NC1=NCCN1` [Clonidine·HCl]: inactive: 0.698; `C[C@]12C=CC(=O)N[C@@H]1CC[C@@H]1[C@@H]2CC[C@]2(C)[C@@H](C(=O)Nc3cc(C(F)(F)F)ccc3C(F)(F)F)CC[C@@H]12` [Dutasteride]: inactive: -0.0064. Take `N=C(N)NCCCCNC(=N)N` [Arcaine sulfate]: the Z-score is inactive: -0.0313. Next, `CCCNC(=O)NS(=O)(=O)c1ccc(Cl)cc1` [Chlorpropamide]: inactive: 2.32; `CCN(CC)C(C)CN1c2ccccc2Sc2ccccc21` (centres undefined) [Ethopropazine hydrochloride]: inactive: 0.278. Next, `Cc1cnc(Nc2ccc(OCCN3CCCC3)cc2)nc1Nc1cccc(S(=O)(=O)NC(C)(C)C)c1`: inactive: -0.934.

`CN(C)CCCN1c2ccccc2Sc2ccc(Cl)cc21` [Chlorpromazine·HCl]: the Z-score was inactive: 1.62. Consider `CN(C)CCCN1c2ccccc2Sc2ccc(Cl)cc21` [Chlorpromazine hydrochloride], for which the Z-score is inactive: 0.248. Next, `O=C(OC12CC3CC(CC(C3)C1)C2)c1ccc(NCc2cc(O)ccc2O)cc1` [Adaphostin]: inactive: 1.35. Next, `COc1cc([C@@H]2c3cc4c(cc3[C@@H](O[C@@H]3O[C@@H]5CO[C@@H](c6cccs6)O[C@H]5[C@H](O)[C@H]3O)[C@H]3COC(=O)[C@H]23)OCO4)cc(OC)c1O` [Teniposide]: inactive: -0.955.

As for `CC1(C)C2CCC1(C(=O)O)C(=O)C2` (centres undefined) [Ketopinic acid], the Z-score was inactive: -0.628. Next, `CCCCOc1cc(CC2CNC(=O)N2)ccc1OC` (centres undefined): inactive: 3.73; `CC(C)Cn1c(=O)n(C)c(=O)c2[nH]cnc21` [3-Isobutyl-1- methylxanthine]: inactive: 0.341; `Clc1cccc(Cl)c1CSc1nnc(-c2cnccn2)s1`: inactive: -0.0792. Next, `CC(=O)N[C@H](C(=O)N[C@@H](CC(=O)O)C(=O)N[C@@H](CCCN=C(N)CF)C(N)=O)[C@@H](C)O` [TDFA  trifluoroacetate salt]: inactive: -0.301; `C=C(C)[C@@H](CC=C(C)C)C[C@@]12C[C@@H](CC=C(C)C)C(C)(C)[C@@](CC=C(C)C)(C(=O)C(C(=O)c3ccc(O)c(O)c3)=C1O)C2=O` [Garcinol]: inactive: -1.04; `Nc1ncnc2c1ncn2C1CCCO1` (centres undefined): inactive: -0.216. Next, `Nc1ccn([C@@H]2O[C@H](CO)[C@@H](O)[C@@H]2O)c(=O)n1` [Cytarabine]: inactive: 0.526; `Nc1ccn([C@@H]2O[C@H](CO)[C@@H](O)[C@@H]2O)c(=O)n1` [Cytosine-1-beta-D- arabinofuranoside hydrochloride]: inactive: -0.363; `COc1ccnc(C[S+]([O-])c2nc3cc(OC(F)F)ccc3[nH]2)c1OC` (centres undefined) [Pantoprazole]: inactive: -0.0167. On to `N[C@@H](Cc1ccc(O)c(I)c1)C(=O)O` [3-Iodo-L-tyrosine], for which the Z-score was inactive: 0.355. Next, `C[C@H]1O[C@@H](Oc2c(-c3cc(O)c(O)c(O)c3)oc3cc(O)cc(O)c3c2=O)[C@@H](O)[C@@H](O)[C@@H]1O` [Myricitrin]: inactive: -0.426. Next, `CC[C@@H](C(=O)[C@@H](C)[C@@H](O)[C@H](C)CCc1ccc(C)c(O)c1C(=O)O)[C@H]1O[C@](CC)([C@H]2CC[C@](O)(CC)[C@H](C)O2)C[C@@H]1C` [Lasalocid A]: inactive: 0.276; `C=C1C(=O)O[C@@H](CCC)[C@@H]1C(=O)O` [Butyrolactone 3]: inactive: 2.78; `CCCCN1CCCCC1C(=O)Nc1c(C)cccc1C` (centres undefined) [Bupivacaine·HCl]: inactive: -0.309. Next, `Cc1nc(Nc2ncc(C(=O)Nc3c(C)cccc3Cl)s2)cc(N2CCN(CCO)CC2)n1` [Dasatinib]: inactive: 0.0962; `CCN(CCO)CCCC(C)Nc1ccnc2cc(Cl)ccc12` (centres undefined) [Hydroxychloroquine Sulfate]: inactive: 0.379. Take `CCOC(=O)c1c(CSc2ccccc2)n(C)c2cc(Br)c(O)c(CN(C)C)c12` [Arbidol hydrochloride]: the Z-score is inactive: 0.000953. Next, `COc1ccc(CC2c3cc(OC)c(OC)cc3CC[N+]2(C)CCC(=O)OCCCCCOC(=O)CC[N+]2(C)CCc3cc(OC)c(OC)cc3C2Cc2ccc(OC)c(OC)c2)cc1OC` (centres undefined) [Atracurium Besylate]: inactive: 0.214; `Cc1nc(-c2ccc(OCC(C)C)c(C#N)c2)sc1C(=O)O` [Febuxostat]: inactive: 1.46. Next, `CN(C)[C@@H]1C(O)=C(C(N)=O)C(=O)[C@@]2(O)C(O)=C3C(=O)c4c(O)cccc4[C@@](C)(O)[C@H]3[C@H](O)[C@@H]12` [Oxytetracycline·HCl]: inactive: -0.321; `Nc1ccc(CCNc2ncnc3c2ncn3C2OC(CO)C(O)C2O)cc1` (centres undefined) [N6-2-(4-  Aminophenyl)ethylad enosine]: inactive: 0.539.

Turning to `Oc1ccc2c(c1)CC[C@H](c1ccccc1)[C@@H]2c1ccc(OCCN2CCCC2)cc1` [Lasofoxifene tartrate], the Z-score was inactive: -0.781. Next, `NC(N)=Nc1nc(CSCC/C(N)=N/S(N)(=O)=O)cs1` [Famotidine]: inactive: 1.47.

On to `CC1=C(/C=C/C(C)=C/C=C/C(C)=C\C(=O)O)C(C)(C)CCC1` [13-cis-retinoic acid], for which the Z-score was inactive: -1.11. Next, `CC1=C(/C=C/C(C)=C/C=C/C(C)=C\C(=O)O)C(C)(C)CCC1` [13-cis-Retinoic acid]: inactive: -0.843; `CC1=C(/C=C/C(C)=C/C=C/C(C)=C\C(=O)O)C(C)(C)CCC1` [Isotretinoin (13-Cis-Retinoic Acid)]: inactive: 0.885.

On to `Nc1nc(OCc2ccccc2)c2nc[nH]c2n1` [O6-benzylguanine], for which the Z-score was inactive: 2.63. Next, `NC1C=CC=C(C(=O)O)C1` (centres undefined) [Gabaculine hydrochloride]: inactive: 0.558; `CC(C)(Sc1ccc(CCN(CCCCC2CCCCC2)C(=O)NC2CCCCC2)cc1)C(=O)O`: inactive: 0.186.

On to `CSc1ccc2c(c1)N(CCC1CCCCN1C)c1ccccc1S2` (centres undefined) [Thioridazine·HCl], for which the Z-score was inactive: 0.58. Next, `CSc1ccc2c(c1)N(CCC1CCCCN1C)c1ccccc1S2` (centres undefined) [Thioridazine hydrochloride]: inactive: -0.238; `CC(C)(N)C(=O)N[C@H](COCc1ccccc1)C(=O)N1CCC2(CC1)CN(S(C)(=O)=O)c1ccccc12`: inactive: -0.85. In the case of `O=c1cc(-c2ccc(O)cc2)oc2c([C@@H]3O[C@H](CO)[C@@H](O)[C@H](O)[C@H]3O)c(O)cc(O)c12` [Vitexin], the Z-score is inactive: 0.217. Next, `CC[N+](CC)(CC)CC(=O)Nc1c(C)cccc1C` [Lidocaine N-ethyl bromide]: inactive: 0.175. Next, `COc1cc(NC(C)CCCN)c2ncccc2c1` (centres undefined) [Primaquine diphosphate]: inactive: -0.102; `CC(=O)OC[C@@]1(O)C[C@@]23CC[C@@H]4c5ccoc5C=C[C@@]4(C)[C@@H]2CC[C@@H]1C3` [Kahweol Acetate]: inactive: -0.5; `Cc1ccc(S(=O)(=O)NC(=O)NN2CCCCCC2)cc1` [Tolazamide]: inactive: -0.435. Consider `Cn1cccc1/C=C1\C(=O)NC(=O)c2ccccc21`, for which the Z-score is inactive: -1.05.

Turning to `C[C@]12CC[C@@H]3c4ccc(OS(=O)(=O)O)cc4CC[C@H]3[C@@H]1CCC2=O` [Estropipate], the Z-score was inactive: 0.416.

For `C=CCn1c(=O)c2c(nc(-c3ccc(S(=O)(=O)O)cc3)n2C)n(C)c1=O` [1-Allyl-3,7- dimethyl-8-p- sulfophenyl xanthine], the Z-score was inactive: 1.15. Consider `C[C@H]1[C@H](C)CC[C@]2(C(=O)O)CC[C@]3(C)C(=CC[C@@H]4[C@@]5(C)C[C@@H](O)[C@H](O)[C@@](C)(CO)[C@@H]5CC[C@]43C)[C@H]12` [Asiatic acid], for which the Z-score was inactive: -0.977. Next, `CN(Cc1cnc2nc(N)nc(N)c2n1)c1ccc(C(=O)N[C@@H](CCC(=O)O)C(=O)O)cc1` [Methotrexate]: inactive: -0.516; `Nc1nc(NC2CC2)c2ncn([C@H]3C=C[C@@H](CO)C3)c2n1` [Abacavir Sulfate]: inactive: 0.832.
